Source: PubChem BioAssay AID1259425 (University of Nebraska Medical Center, 2018)
Purpose: 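Compare each knockdown with KSR1 silencing using changes in marker transcripts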 (primary screen). Cells: HCT116 human colon cancer cells. Reagent: siRNA pool against human genes, 50 nM siRNA. Measured: 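After 50 nM siRNA pool, branched-DNA assay measures six marker transcripts per well, minus blank, normalised to the geometric mean of two housekeeping transcripts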. Scale: BNIP3L mRNA: higher = more BNIP3L transcript after knockdown; NDRG1 mRNA: higher = more NDRG1 transcript after knockdown; BNIP3 mRNA: higher = more BNIP3 transcript after knockdown; ALDOC mRNA: higher = more ALDOC transcript after knockdown; ACSL5 mRNA: higher = more ACSL5 transcript after knockdown.
In all, the deposit lists about 14,000 reagents; shown is a part drawn at random. The record does not give: the time to read-out.

gene knocked down,"BNIP3L mRNA, set 1","NDRG1 mRNA, set 1","BNIP3 mRNA, set 1","ALDOC mRNA, set 1","ACSL5 mRNA, set 1"
PFDN5,0.088,0.414,0.424,0.0137,0.173
CHUK,0.0842,0.478,0.426,0.0189,0.284
COG8,0.2,0.166,0.343,0.107,0.499
CELA2A,0.0998,0.118,0.394,0.0331,0.15
LRBA,0.121,0.116,0.315,0.0247,0.107
ZFP2,0.212,0.476,0.751,0.055,0.306

2 of these entries, set out differently:
PFDN5: BNIP3L mRNA, set 1 = 0.088; NDRG1 mRNA, set 1 = 0.414; BNIP3 mRNA, set 1 = 0.424; ALDOC mRNA, set 1 = 0.0137; ACSL5 mRNA, set 1 = 0.173
CHUK: BNIP3L mRNA, set 1 = 0.0842; NDRG1 mRNA, set 1 = 0.478; BNIP3 mRNA, set 1 = 0.426; ALDOC mRNA, set 1 = 0.0189; ACSL5 mRNA, set 1 = 0.284

The listing continues.
gene knocked down,"BNIP3L mRNA, set 1","NDRG1 mRNA, set 1","BNIP3 mRNA, set 1","ALDOC mRNA, set 1","ACSL5 mRNA, set 1"
UBE2T,0.0678,0.786,0.282,0.0141,0.201
MTHFR,0.121,0.239,0.325,0.0206,0.097
PIR,0.0787,0.132,0.261,0.0176,0.159
SCGB3A2,0.105,0.135,0.273,0.014,0.0791
SPATA20,0.105,0.307,0.328,0.0313,0.106
HDHD5,0.106,0.285,0.196,0.0192,0.232
H4C7,0.0927,0.319,0.288,0.00925,0.0417
SART1,0.139,0.0872,0.273,0.0722,0.129
WDR43,0.333,0.731,0.583,0.0257,0.487
ESD,0.0321,0.129,0.294,0.00159,0.121
KHK,0.101,0.098,0.359,0.0065,0.176
GPR26,0.104,0.201,0.47,0.0283,0.207
ASIC1,0.117,0.367,0.62,0.068,0.15
ABCA9,0.131,0.199,0.322,0.0234,0.136
